According to PubChem BioAssay AID1347075 (National Center for Advancing Translational Sciences (NCATS), 2019):
Out of some 400,000 compounds screened, about 5,500 (1.4%) were called active. This list was built around the results that the source calls inconclusive (neither active nor inactive); the mix of calls is not that of the screen. Calls follow the shape of the dose curve; as a rule, active = well fitted cell-killing curve with a large enough effect; inconclusive = small, poorly fitted or top-dose-only effect, or effect the other way; inactive = flat fitted curve, though single readings scatter. A potency beside an inconclusive call is a rough fit, not a confirmed value.

Assay: qHTS assay for MDR1-selective chemotherapeutics: Primary screen using the parental adenocarcinoma cell KB-3-1; also: nearly all actives have a fitted effect of over 60% in size
Details: KB-3-1 viability, CellTiter-Glo ATP luminescence, 72 h; activity change, negative = cytotoxic: at 46.1 µM (top of the series)
How it was run: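 Screening of KB-3-1 cells (DMEM, 10% FBS, phenol-red free) ran from lowest to highest compound concentration; after 72 h at 37 °C viability was read luminescently and curves fitted.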
% is scaled to controls: 0 for no effect and ±100 for the full control effect; potency is read from the fitted curve at half-maximal effect.

Compound | Potency | activity change, negative = cytotoxic
CCOC(=O)C1=C(C)Nc2ccc(C)cc2S1 | inactive | 
CCN(CC)c1ccc(/C=C/c2ccnc3ccccc23)cc1 | inconclusive: 20.6 µM [cytotoxic, single point] | 
O=C(c1ccc([N+](=O)[O-])s1)N1CCCc2ccccc21 | inactive | 
COc1ccccc1N1CCN(Cc2cc(=O)oc3cc(C)cc(C)c23)CC1 | inactive | 
CN(C)c1ccc(/C=N/NC(=O)c2ccc3c(c2)OCCO3)cc1 | inactive | 
O=C(CCC(=O)N(CC(=O)NC1CCCC1)Cc1ccc2c(c1)OCO2)Nc1ccccn1 | inconclusive: 11.6 µM [rising, partial curve, poor fit] | 
CCc1ccc(N2CCN(S(=O)(=O)CC34CCC(CC3=O)C4(C)C)CC2)cc1 (centres undefined) | inconclusive: 23.1 µM [cytotoxic, partial curve, poor fit] | 
O=C(Cc1cccs1)Nc1cccc(C(=O)Nc2ccco2)c1 | inconclusive: 35.5 µM [cytotoxic, single point] | 
Oc1ccc(CN2CCc3ccccc3C2)c2cccnc12 | active: 4.61 µM | 
COc1ccc(C(C(=O)NC2CCCC2)N(Cc2ccccc2)C(=O)c2snc(C(N)=O)c2N)cc1OC (centres undefined) | inactive | 
O=[N+]([O-])c1ccc(NN=C2CCCCC2)c([N+](=O)[O-])c1 | inconclusive: 18.4 µM [cytotoxic, single point] | 
Cc1cccc2c1-c1sc(C(=O)NCCc3ccc(Cl)cc3)cc1CO2 | inconclusive: 29.1 µM [cytotoxic, single point] | 
O=C(CSc1nc(NS(=O)(=O)c2ccccc2)cc(=O)[nH]1)Nc1ccc(Cl)cc1 | inconclusive: 32.6 µM [cytotoxic, single point] | 
O=C(c1cc(-c2ccc(Cl)c(Cl)c2)on1)N1CCN(c2ccccc2)CC1 | inactive | 
COc1ccc(C(Nc2ccc(S(=O)(=O)NCC3CCCO3)cc2)C(=O)NC(C)(C)C)cc1OC (centres undefined) |  | inconclusive: 33.5%
COCC(C)N1C(=O)Cc2c1nc(N)c1c(N)nc(N3CCN(c4ccccc4F)CC3)c(C#N)c21 (centres undefined) |  | inconclusive: 34.1%
Cc1cc(C)cc(OCc2cc(=O)n3cc(C)sc3n2)c1 | inactive | 
CC(C)Oc1ccc(CNC(=S)N/N=C/c2cccnc2)cc1 | inconclusive: 20.6 µM [cytotoxic, single point] | 
COc1ccc(-c2nn(-c3ccccc3)cc2CNCCN2CCOC2=O)c(F)c1 | inconclusive: 29.1 µM [rising, single point] | 
CCOc1ccccc1CN1CCC(Oc2ccc(C(=O)NCc3ccccn3)cc2)CC1 | inconclusive: 29.1 µM [cytotoxic, single point] | 
O=C(c1cc(-c2ccccc2)nc2ccccc12)N1CCN(c2ccccn2)CC1 | inconclusive: 23.1 µM [cytotoxic, single point] | 
CCC(N=c1cc(-c2ccc(OC)cc2)oc2ccc(C)cc12)C(=O)O (centres undefined) | inconclusive: 14.6 µM [rising, partial curve] | 

Compound | Potency | activity change, negative = cytotoxic
Cc1c(NC(=O)CSc2nnc(-c3ccncc3)n2C)c(=O)n(-c2ccccc2)n1C | inactive | 
Cc1ccc(NC(=S)NNC(C)(C)C)cc1 | inactive | 
CC(C)(C)C(=O)NC(=S)NNC(=O)C(c1ccccc1)c1ccccc1 | inconclusive: 25.9 µM [cytotoxic, single point] | 
N#Cc1c(C(F)(F)F)cc(-c2ccccc2)nc1SCC(=O)Nc1sc2c(c1C#N)CCC2 | inconclusive: 7.31 µM [cytotoxic, partial curve, poor fit] | 
COc1ccc(C(=O)/C=C2/C(=O)Nc3ccccc32)cc1 | inconclusive: 25.9 µM [cytotoxic, single point] | 
Cc1ccc(C)c(N2CCN(CCCc3ccccc3)CC2)c1 | inconclusive: 14.6 µM [cytotoxic, partial curve, poor fit] | 
CC(NC(=O)CCc1nnc(-c2ccc(-c3ccccc3)cc2)o1)c1nc2ccccc2[nH]1 (centres undefined) | inconclusive: 29.1 µM [cytotoxic, single point] | 
NS(=O)(=O)c1ccc(CCNc2nn3c(-c4cccc(OC(F)(F)F)c4)cnc3s2)cc1 | inconclusive: 25.9 µM [cytotoxic, single point] | 
CCCN(CCC)Cc1c(C(=O)N/N=C/C(C)=C\c2ccccc2)nnn1-c1nonc1N | inactive | 
CCc1nc(SCC(=O)NNC(=O)c2ccc(OC)cc2)c2ccccc2n1 | inactive | 
O=C(Nc1ccc(OC(F)(F)F)cc1)c1cnc2n(c1=O)CCS2 | inconclusive: 3.26 µM [cytotoxic, full curve, poor fit] | 
C=CCNC(=S)N/N=C/c1ccc(C(C)(C)C)cc1 | inconclusive: 29.1 µM [cytotoxic, single point] | 
COc1cc(C#Cc2c(-c3cncn3C)n(C)c3ccc(-c4cc(OC)c(OC)c(OC)c4)cc23)cc(OC)c1 | active: 11.6 µM | 
Oc1c(N=NC(=S)Nc2ccccc2F)c2ccccc2n1Cc1ccccc1F | inconclusive: 5.8 µM [cytotoxic, partial curve] | 
O=S1(=O)N[C@H](Cc2ccccc2)COc2cc(N3CCC[C@H]3CO)ccc21 | inactive | 
Cc1ccc(C(=O)Nc2ccccc2C(=O)NC(Cc2c[nH]c3ccccc23)C(=O)O)cc1 (centres undefined) | inconclusive: 0.164 µM [cytotoxic, partial curve, poor fit] | 
Cc1ccc(-c2csc(NC(=O)CN3CCOCC3)n2)cc1 | inconclusive: 29.1 µM [cytotoxic, single point] | 
N#CC(=Cc1ccncc1)c1ccccc1 | inconclusive: 29.1 µM [cytotoxic, single point] | 
Cc1nc2ccccn2c1C(=O)Nc1ccc2c(c1)OCCO2 | inconclusive: 8.2 µM [rising, partial curve, poor fit] | 
N/C(=N\OC(=O)c1cccc2ccccc12)c1ccccn1 | inactive | 
CCOc1ccccc1N(CC(=O)Nc1ccc(OC)cc1OC)S(=O)(=O)c1ccccc1 | inconclusive: 23.1 µM [cytotoxic, single point] | 
CCOc1cc(N(CC)CC)ccc1/C=C(/C#N)c1nc2ccccc2[nH]1 | inconclusive: 23.1 µM [cytotoxic, single point] | 

Part of the list above, as a markdown table.

| Compound | Potency | activity change, negative = cytotoxic |
| --- | --- | --- |
| NS(=O)(=O)c1ccc(CCNc2nn3c(-c4cccc(OC(F)(F)F)c4)cnc3s2)cc1 | inconclusive: 25.9 µM [cytotoxic, single point] |  |
| CCCN(CCC)Cc1c(C(=O)N/N=C/C(C)=C\c2ccccc2)nnn1-c1nonc1N | inactive |  |
| CCc1nc(SCC(=O)NNC(=O)c2ccc(OC)cc2)c2ccccc2n1 | inactive |  |
